From PMC3534531
No constants are given. Whether binding was seen depends on the method and setting. Some results given as binding are weak or reduced against the parent protein; the word gives no strength.

T1: hypothetical protein EUO CPn0561 (Chlamydia pneumoniae) (UniProt Q9Z7Z2)
T1 sequence: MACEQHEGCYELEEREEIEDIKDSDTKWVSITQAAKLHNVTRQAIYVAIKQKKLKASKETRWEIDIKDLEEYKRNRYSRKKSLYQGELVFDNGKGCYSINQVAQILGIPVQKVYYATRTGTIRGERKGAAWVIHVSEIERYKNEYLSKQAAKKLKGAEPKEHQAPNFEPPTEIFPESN

B1: hypothetical protein EUO CPn0561 (protein, UniProt Q9Z7Z2 1-178)
chain: MACEQHEGCYELEEREEIEDIKDSDTKWVSITQAAKLHNVTRQAIYVAIKQKKLKASKETRWEIDIKDLEEYKRNRYSRKKSLYQGELVFDNGKGCYSINQVAQILGIPVQKVYYATRTGTIRGERKGAAWVIHVSEIERYKNEYLSKQAAKKLKGAEPKEHQAPNFEPPTEIFPESN
B2: PTS phosphocarrier protein Hpr ptsH CPn0037 (protein, UniProt Q9Z9E4 1-108)
chain: MNEPTRTYLESEKDTQDQIEELQATCIVKNAAGIHVRPAGVIVRLFDGEPCDVHFTYAGKTINAKSIMSILMLGAPQGGEILVTIRSKEAHRILQKIQDAFSSGFGEL

Molecular target: T1, hypothetical protein EUO CPn0561 (Chlamydia pneumoniae)
Test: two-hybrid; ORFeome-wide library screen: bait in pBD-Gate2 (GAL4 DNA-binding domain), pooled Cpn ORFeome prey library in pAD-Gate2, co-transformed into S. cerevisiae AH109; selection on SD/-trp-leu-ade-his, at least 4 days at 28°C; recovered preys retested with the bait or empty pBD-Gate2 and sequenced

Binder | binding
B1 | binds
B2 | binds
